Measured values published in patent EP3470426A1.
These are yes or no findings as the source states them, for the method shown. Some binding calls cover weakened binding; strength is not graded here. Values belong to the binder of their own block, whether it stands above or below them.

Chains of the proteins cited; added tags and fusions are not shown. Lines headed by an entry give the natural chain unless they say otherwise; changes in a name come on top.
UniProt Q07011: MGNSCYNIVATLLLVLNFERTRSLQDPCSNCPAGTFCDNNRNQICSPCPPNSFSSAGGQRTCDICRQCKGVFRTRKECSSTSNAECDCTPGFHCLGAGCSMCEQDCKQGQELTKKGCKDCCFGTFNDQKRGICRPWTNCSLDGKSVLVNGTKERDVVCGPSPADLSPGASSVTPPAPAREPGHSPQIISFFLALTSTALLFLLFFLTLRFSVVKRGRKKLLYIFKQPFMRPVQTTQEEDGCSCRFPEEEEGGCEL

Assays:
[1] = target: CD137 (recombinant, form not given) (human) (UniProt Q07011); experiment: SPR sandwich epitope binning (MASS-1), CD137 captured by PRO951
[2] = target: CD137 (recombinant, form not given) (human) (UniProt Q07011); experiment: SPR sandwich epitope binning
[3] = target: CD137 (recombinant, form not given) (human) (UniProt Q07011); experiment: SPR sandwich epitope binning (MASS-1)

- binding [1]: binds
- binding [2]: binds
B1: PRO885 (bispecific antibody)
chain: DIQMTQSPSSLSASVGDRVTITCQASQSINDYLAWYQQKPGKAPKLLIYKASTLASGVPSRFSGSGSGTDFTLTISSLQPEDFATYYCQQGYIITDIDNVFGTGTKVTVLGGGGGSQVQLQESGPGLVKPSETLSLTCKVSGFSFSNSYWICWIRQPPGKGLEWIGCTFVGSSDSTYYANWAKGRVTISVDSSKNQFSLKLSSVTAADTAVYYCARHPSDAVYGYANNLWGQGTLVTVSSGGGGSGGGGSGGGGSGGGGSIQMTQSPSSLSASVGDRVTITCQASQSINNVLAWYQQKPGKAPKLLIYRASTLASGVPSRFSGSGSGTDFTLTISSLQPEDFATYYCQSSYGNYGDFGTGTKVTVLGGGGGSQVQLQESGPGLVKPSETLSLTCKVSGFSFSSGYDMCWIRQPPGKGLEWIGCVVAGSVDITYYASWAKGRVTISVDSSKNQFSLKLSSVTAADTAVYYCARKDAYSDAFNLWGQGTLVTVSS

- binding [2]: binds
- binding [3]: binds
B2: PRO951 (bispecific antibody)
chain: DIQMTQSPSSLSASVGDRVTITCQASQSINDYLAWYQQKPGKAPKLLIYKASTLASGVPSRFSGSGSGTDFTLTISSLQPEDFATYYCQQGYIITDIDNVFGTGTKVTVLGGGGGSEVQLVESGGGLVQPGGSLRLSCAASGFSFNNDYDMCWVRQAPGKGLEWIGCIDTGDGSTYYASWAKGRFTISRDNSKNTVYLQMNSLRAEDTAVYYCAREAASSSGYGMGYFDLWGQGTLVTVSSGGGGSGGGGSGGGGSGGGGSIQMTQSPSSLSASVGDRVTITCQSSQSVYDNNWLAWYQQKPGKAPKLLIYRASNLASGVPSRFSGSGSGTDFTLTISSLQPEDFATYYCQGTYLSSNWYWAFGTGTKVTVLGGGGGSQVQLQESGPGLVKPSETLSLTCKVSGFSFSSGYDMCWIRQPPGKGLEWIGCVVAGSVDITYYASWAKGRVTISVDSSKNQFSLKLSSVTAADTAVYYCARKDAYSDAFNLWGQGTLVTVSS
